PubChem BioAssay AID504444 (National Center for Advancing Translational Sciences (NCATS), 2011)
Out of some 360,000 compounds screened, about 7,500 (2.1%) were called active. The inconclusive results got no clear call from the source; some entries with a clear call stand among them for comparison. Calls follow the shape of the dose curve; as a rule, active = well fitted inhibition curve with a large enough effect; inconclusive = small, poorly fitted or top-dose-only effect, or effect the other way; inactive = flat fitted curve, though single readings scatter. A potency beside an inconclusive call is a rough fit, not a confirmed value.

assay: Nrf2 qHTS screen for inhibitors; conditions: A549 ARE-Fluc reporter, luciferase luminescence, 18-24 h; series mostly up to 46 µM; also: nearly all actives have a fitted effect of over 60% in size
Summary of the method: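 Reporter: ARE-Fluc in A549. Exposure: 18-24 h, 37 °C, 5% CO2, 5% FBS OPTI-MEM. Readouts: fluorescent cytotoxicity (CellTiter-Fluor), then luminescent Nrf2 signal after BugLite.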
Potency is read from the fitted curve at half-maximal effect.

| SMILES | Potency |
| --- | --- |
| Fc1ccc(NC(=S)N2CCN(c3cccc(C(F)(F)F)c3)CC2)cc1 | inconclusive: 29.1 µM [falling, single point] |
| Cc1ccc(NS(=O)(=O)c2ccc3[nH]c(=O)oc3c2)c(C)c1 | inactive |
| Cc1ccnc(NC(=O)CCCc2ccccc2)c1 | inconclusive: 14.6 µM [activator, single point] |
| CCOc1ccc(Cl)cc1S(=O)(=O)N1CCN(c2ccc(F)cc2)CC1 | inactive |
| O=C(COC(=O)c1ccccc1-n1cnnn1)c1ccccc1 | inactive |
| COCn1c(-c2ccc(OC)c(OC)c2)nc2ccccc21 | inconclusive: 8.2 µM [activator, partial curve] |
| c1cc2c(cc1C1CCCCC1)c1c3n2CCCNC3CCC1 (configuration not stated) | inactive |
| Cc1ccccc1C(=O)NC(=S)N(C)C1CCCCC1 | inconclusive: 23.1 µM [activator, partial curve] |
| CN(C)/C=C(\C#N)C(=O)N/N=C/c1ccc(Cl)cc1 | inconclusive: 4.11 µM [activator, full curve, poor fit] |
| COc1cccc(-c2ccc3c(N)c(C(=O)NC4CC4)sc3n2)c1 | inconclusive: 3.26 µM [activator, partial curve, poor fit] |
| CCc1ccc(-c2cc(C)no2)cc1S(=O)(=O)N1CC(=O)Nc2ccccc21 | inconclusive: 32.6 µM [falling, partial curve, poor fit] |
| Cc1nn(Cc2c(Cl)cccc2Cl)c(C)c1NC(=O)CCCn1nc([N+](=O)[O-])c(Cl)c1C | inconclusive: 16.4 µM [falling, single point] |
| CCOc1ccc(NCc2nc3ccccc3n2CCOc2ccccc2)cc1 | inconclusive: 32.6 µM [falling, single point] |
| Cc1cccc(NS(=O)(=O)c2ccc(C)c(C(=O)NCc3cccnc3)c2)c1 | inactive |
| COc1cc2nc(SCC(=O)Nc3c(C)cc(C)cc3C)n3nc(CCn4c(C)nc5ccccc54)nc3c2cc1OC | inactive |
| CS(=O)(=O)c1ccc2nc(NC(=O)c3ccccc3)sc2c1 | inconclusive: 11.6 µM [activator, partial curve] |
| O=C(CN1CCOCC1)Nc1cccc(S(=O)(=O)N2CCCCCC2)c1 | inconclusive: 16.4 µM [falling, partial curve, poor fit] |
| CCOC(=O)c1cnc2c(-c3ccc(F)cc3)cnn2c1C(F)(F)F | inconclusive: 20.6 µM [falling, partial curve, poor fit] |
| O=C(Nc1cccnc1)c1ccco1 | inconclusive: 2.59 µM [activator, partial curve] |
| C#CC(=O)N(c1cccc(OC)c1)C(C(=O)NC1CCCC1)c1cccs1 (configuration not stated) | active: 16.4 µM |
| COC(=O)C1=C(C)Nc2nc(-c3ccccc3)nn2C1c1ccc(C)o1 (configuration not stated) | inconclusive: 25.9 µM [falling, single point] |

Shown with tabs: entries from further up
SMILES	Potency
CCOc1ccc(Cl)cc1S(=O)(=O)N1CCN(c2ccc(F)cc2)CC1	inactive
O=C(COC(=O)c1ccccc1-n1cnnn1)c1ccccc1	inactive
COCn1c(-c2ccc(OC)c(OC)c2)nc2ccccc21	inconclusive: 8.2 µM [activator, partial curve]

Going on with the list.

| SMILES | Potency |
| --- | --- |
| CCOc1ccc(C(=O)Nc2cccc(-c3ccc(N4CCOCC4)nn3)c2)cc1OCC | inconclusive: 4.61 µM [activator, single point] |
| CC(C)CCn1c(COc2ccccc2)nn(CCC#N)c1=S | inconclusive: 20.6 µM [falling, single point] |
| Cc1c(Cl)cccc1NC(CC(=O)c1ccccc1)C(=O)OCC(=O)c1cccs1 (configuration not stated) | inactive |
| CC(=O)c1cccc(Nc2nc(-c3sc(C)nc3C)cs2)c1 | active: 23.1 µM |
| COc1ccccc1Oc1ccc(N/C=C/C(=O)c2ccc(C)o2)cc1 | inconclusive: 29.1 µM [activator, single point] |
| Cc1c(Cc2ccccc2)sc(NC(=O)/C=C/c2cccc3ccccc23)c1C(N)=O | inactive |
| CC(C)c1ccc(N=C(N)N=C(N)N)cc1 | inconclusive: 13 µM [falling, partial curve, poor fit] |
| CCOC(=O)c1c(C)c(C(=O)NCCc2ccccc2)c(C)n1C | inconclusive: 3.26 µM [activator, full curve] |
| O=C(NCCCN1CCCC1=O)C1CCC(CNS(=O)(=O)c2ccc(Cl)cc2)CC1 (configuration not stated) | inconclusive: 25.9 µM [falling, partial curve, poor fit] |
| CCCSCCCNC(=O)C1CCCN(c2nn3cc(-c4ccc(OC)cc4)nc3s2)C1 (configuration not stated) | inconclusive: 32.6 µM [falling, single point] |
| C/C=C(\C)C(=O)NCCN1C2=NC[C@H](Cc3ccc(O)cc3)N2C[C@H]1Cc1ccc(O)cc1 | inconclusive: 0.517 µM [activator, partial curve, poor fit] |
| CCCCCC(=O)N1CCCC(c2nc(-c3ccc(OC)cc3)no2)C1 (configuration not stated) | inconclusive: 29.1 µM [falling, single point] |
| CCOc1ccc(C(=O)c2cn(CC(=O)Nc3ccc(F)cc3)c3cc4c(cc3c2=O)OCO4)cc1 | inconclusive: 25.9 µM [activator, single point] |
| O=C(CN(c1cc(Cl)ccc1Cl)S(=O)(=O)c1ccccc1)N1CCOCC1 | inactive |
| CN(C)CCCN(C(=O)c1ccc(Br)s1)c1nc2ccc(F)cc2s1 | inconclusive: 18.4 µM [activator, single point] |
| CCOc1ccc(NC(=O)c2ccc3c(=O)n4nc(Nc5ccccc5C)sc4nc3c2)cc1 | inconclusive: 29.1 µM [activator, single point] |
| CC(C)C(c1nnnn1Cc1ccco1)N1CCN(c2nc3ccccc3s2)CC1 (configuration not stated) | inconclusive: 29.1 µM [falling, single point] |
| CC(C)(C)c1cc(CP(=O)(c2ccccc2)c2ccccc2)cc(C(C)(C)C)c1O | inconclusive: 29.1 µM [falling, single point] |
| Nc1c(Cl)cc(C2=NCCn3nc4cc(C(F)(F)F)ccc4c32)cc1Cl | inconclusive: 20.6 µM [activator, partial curve, poor fit] |
| O=C(CCNC(=O)c1ccccc1Cl)Nc1cccc(S(=O)(=O)N2CCCCC2)c1 | inconclusive: 5.8 µM [activator, single point] |
| N/C(=N\OC(=O)C1CCCCC1)c1cccc(Br)c1 | inconclusive: 29.1 µM [activator, partial curve] |
